Measurements taken from the supplement of paper PMC9254222.
Shown are results outside the selection of highest values, which stands elsewhere.

Tested on: HEK293T (UBE3A T485A transfected, BAR Wnt reporter)
Assay: Renilla luciferase signal (cell health) relative to plate median (fold (linear ratio)); higher = higher Renilla signal
Conditions: 24 h
Outline: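 Chemicals were robotically dosed at 0.01–100 uM for 24 h onto HEK293T cells, starting four hours after transfection with a BAR firefly luciferase Wnt reporter, TK-Renilla and an expression plasmid. The cells had been plated at 4500 cells/well in DMEM with 10% FBS at 37°C and 5% CO2. Following a Dual-Glo luciferase readout, the firefly/Renilla ratio served as the Wnt activity measure and raw Renilla as the cell health measure, both median-centred on each plate. Each value is the mean of four biological replicates.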

| SMILES | Renilla luciferase signal (concentration: 0.1 uM) | Renilla luciferase signal (concentration: 1 uM) | Renilla luciferase signal (concentration: 10 uM) | Renilla luciferase signal (concentration: 100 uM) |
| --- | --- | --- | --- | --- |
| Oc1c(Cl)cc(Cl)cc1Cl [2,4,6-Trichlorophenol] | 0.574 | 0.674 | 0.478 | 0.556 |
| CC(C)(C)c1ccc(O)cc1 [4-tert-Butylphenol] | 0.859 | 0.754 | 0.853 | 0.79 |
| Cc1ccc(O)cc1C [3,4-Dimethylphenol] | 1.18 | 1.32 | 1.41 | 1.22 |
